Results deposited as PubChem BioAssay AID504786 (Drosophila RNAi Screening Center, 2011).

Aim: 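Positive regulators of HIF-driven reporter output in Drosophila cells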 (primary screen)
Cell system: Drosophila S2 cells with a stable HIF luciferase reporter
Knock-down reagent: long dsRNA against Drosophila genes, about 0.2 µg dsRNA per well of a 384-well plate
Duration: three days of knock-down, then 20 h of DFO before reading
Conditions: desferrioxamine (DFO) at 100 µM, an iron chelator that mimics hypoxia, for 20 h
Read-out: 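HIF reporter luminescence in cells given 100 µM DFO for 20 h, using the mouse ldh-a hypoxia-response element, scored as per-plate z-scores; higher means greater loss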
Reading the numbers: z-score: higher = stronger loss of HIF reporter signal
In all, the deposit lists about 21,000 reagents; below is an unselected part of those with a known target gene and a result. 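Primary screen; positive scores mean lost reporter signal, so the sign may be inverted from the usual convention.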

crol [DRSC03514]: z-score, replicate 1 = -0.2; z-score, replicate 2 = -0.1
Gagr [DRSC10441]: z-score, replicate 1 = -0.3; z-score, replicate 2 = -0.4
Col4a1 [DRSC03291]: z-score, replicate 1 = -0.3; z-score, replicate 2 = -0.5
CG17982 [DRSC18143]: z-score, replicate 1 = -0.2; z-score, replicate 2 = -0.6
levy [DRSC04289]: z-score, replicate 1 = 0.3; z-score, replicate 2 = 0.6
Rsod [DRSC15424]: z-score, replicate 1 = 0.4; z-score, replicate 2 = 1.4
Sec71 [DRSC01893]: z-score, replicate 1 = -0.3; z-score, replicate 2 = -0.8
CG5043 [DRSC02805]: z-score, replicate 1 = -0.1; z-score, replicate 2 = -0.3
PIG-H [DRSC14856]: z-score, replicate 1 = -0.3; z-score, replicate 2 = -0.3
CG7115 [DRSC02000]: z-score, replicate 1 = -0.1; z-score, replicate 2 = 0.2
AGO2 [DRSC09999]: z-score, replicate 1 = -0.1; z-score, replicate 2 = 0.5
AGO2 [DRSC10847]: z-score, replicate 1 = -0.4; z-score, replicate 2 = -0.3
kermit [DRSC06074]: z-score, replicate 1 = -0.2; z-score, replicate 2 = -0.4
dpr8 [DRSC19406]: z-score, replicate 1 = -0.3; z-score, replicate 2 = -0.5
dpr8 [DRSC19600]: z-score, replicate 1 = -0.4; z-score, replicate 2 = -0.4
dpr8 [DRSC19938]: z-score, replicate 1 = -0.4; z-score, replicate 2 = -1
dpr8 [DRSC19939]: z-score, replicate 1 = -0.4; z-score, replicate 2 = 0

Targets above whose target name begins with C or c:
crol [DRSC03514]: z-score, replicate 1 = -0.2; z-score, replicate 2 = -0.1
Col4a1 [DRSC03291]: z-score, replicate 1 = -0.3; z-score, replicate 2 = -0.5
CG17982 [DRSC18143]: z-score, replicate 1 = -0.2; z-score, replicate 2 = -0.6
CG5043 [DRSC02805]: z-score, replicate 1 = -0.1; z-score, replicate 2 = -0.3
CG7115 [DRSC02000]: z-score, replicate 1 = -0.1; z-score, replicate 2 = 0.2
